Assay [1] concerns the target NFS1-ISD11 complex (SD) with His-tagged ISD11, as co-expressed and captured on Ni resin (human) (UniProt Q9Y697). The assay can be described thus: co-purification.
In assay [2] the target is human His-tagged ISD11 (human) (UniProt Q9HD34). The assay is described as follows: co-purification.

Amino acid sequences for entries named in this document (tags omitted). A change or cut given only in a name is not applied to a line headed by its entry. Residues count along the entry.
UniProt Q9Y697, 56-457, stated change not applied: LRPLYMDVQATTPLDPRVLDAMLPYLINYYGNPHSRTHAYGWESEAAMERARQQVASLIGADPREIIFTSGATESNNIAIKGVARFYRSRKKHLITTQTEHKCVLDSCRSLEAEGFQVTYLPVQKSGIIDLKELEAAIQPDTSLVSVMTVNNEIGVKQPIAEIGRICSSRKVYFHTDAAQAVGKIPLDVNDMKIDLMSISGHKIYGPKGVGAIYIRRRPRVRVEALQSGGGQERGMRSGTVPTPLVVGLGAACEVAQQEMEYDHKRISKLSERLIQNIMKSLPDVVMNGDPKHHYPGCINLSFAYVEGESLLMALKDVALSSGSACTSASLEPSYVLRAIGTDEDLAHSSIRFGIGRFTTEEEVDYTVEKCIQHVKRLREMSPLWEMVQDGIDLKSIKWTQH
UniProt Q9HD34, whole entry: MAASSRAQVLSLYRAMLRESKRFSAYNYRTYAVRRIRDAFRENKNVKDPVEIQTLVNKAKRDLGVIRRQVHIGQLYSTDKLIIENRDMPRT

These are yes or no findings as the source states them, for the method shown. Some results given as binding are weak or reduced against the parent protein; the word gives no strength.

Turning to “bacterial acyl-carrier protein (ACP) from the host expression organism E. coli (from UniProt P0A6A8 1-78)”, the binding result in assay [1] was “binds”.

In the case of “human NFS1 (Δ1-55), non-tagged (from UniProt Q9Y697 56-457) (enzyme)”, the binding result in assay [2] was “binds”.
